# Experimental data from the supplement of paper PMC3334620.
# Over roughly 33,000 sequences, “E-score (-0.5 to 0.5)” has its median near -0.0014; the highest 2% begin near 0.25. Some of the results follow.
# Molecular target: T1, Cad1 (UniProt P24813)
# T1 sequence: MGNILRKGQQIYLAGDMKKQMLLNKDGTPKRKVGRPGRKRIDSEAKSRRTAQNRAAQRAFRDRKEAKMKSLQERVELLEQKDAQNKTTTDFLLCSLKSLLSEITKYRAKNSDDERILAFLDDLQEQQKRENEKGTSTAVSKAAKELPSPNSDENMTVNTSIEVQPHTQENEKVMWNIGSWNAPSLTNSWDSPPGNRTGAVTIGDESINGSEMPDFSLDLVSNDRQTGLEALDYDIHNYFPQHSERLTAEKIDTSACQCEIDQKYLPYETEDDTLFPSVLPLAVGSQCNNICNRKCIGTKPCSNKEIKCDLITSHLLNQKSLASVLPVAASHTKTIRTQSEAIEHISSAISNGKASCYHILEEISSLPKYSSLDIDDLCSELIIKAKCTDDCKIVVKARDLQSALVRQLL
# Assay: PBM E-score (8-mer binding enrichment) (E-score (-0.5 to 0.5)); higher = stronger / more preferred TF binding
# Conditions: protein concentration: 100 nM; construct: GST-full length
# How it was run: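 Yeast transcription factors carrying a GST tag, as full-length proteins or DNA-binding domains, were produced by PURExpress in vitro transcription/translation. About 100-200 nM protein was applied to universal all-10-mer Agilent arrays, double-stranded by primer extension on fresh or once-stripped slides. Bound protein was detected with fluorescent anti-GST, and scans were normalised with masliner. The Universal PBM Analysis Suite gave each ungapped eight-base word, pooled with its reverse complement, an E-score, a modified Wilcoxon-Mann-Whitney statistic.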
row,Sequence,PBM E-score
1,CGTGGGGA,-0.0675
2,TAAACCGA,-0.0449
3,AGCCATGG,-0.0339
4,CTCATGTC,-0.118
5,GCAGGTGA,-0.0228
6,AACGGCTT,-0.00056
7,CAGATGAG,0.089
8,TACGGCTA,-0.144
9,ATCGGTTC,-0.089
10,AGCCTTCC,-0.327
11,ACCTAACC,0.0931
12,CCAATCTC,0.0449
13,ACATGACA,0.159
14,AAATCAAG,-0.0621
15,GTATCTTA,0.287
16,CCAAATAA,0.15
17,ATGGTATG,-0.0437
18,CCAGGTGA,-0.102
19,ACCGCTTC,-0.068
20,AGGGGGAC,-0.447
21,GAGACGAA,-0.0602
22,GCGTCTCC,-0.00342
23,CTTCGTTC,-0.0316
24,CGTGTTCC,0.0432
25,CGAGACCC,0.0594

row,Sequence,PBM E-score
1,ATACGGTA,0.0931
2,ATACCACA,0.113
3,GCGGTAGC,0.00984
4,CACCTGGC,-0.212
5,GAGTAGGC,-0.156
6,AGGTGCCA,-0.026
7,AGATGGAG,-0.0255
8,CTTGATGC,-0.0357
9,ATAATGAT,0.12
10,GAAAAAAC,0.0982
11,CTTTCTCA,0.121
12,AAGAACTT,0.223
13,ACCCAACC,-0.00591
14,TCGGCAGA,-0.0578
15,AGTTAAAT,-0.069
16,GTCAAGCA,-0.189
17,CGGTCTCA,-0.0422
18,GTCCCTCA,-0.154
19,ACAGTAAG,0.0915
20,ATCTCCAA,0.0729
21,CCGGAAGC,0.165
22,TAAGTGGA,0.118
23,AGTCGCTG,-0.0625
24,ATTCAACC,-0.0124
25,GCTACAAC,-0.031

# 7 records drawn at random from those above, as already listed:
row,Sequence,PBM E-score
23,AGTCGCTG,-0.0625
19,ACCGCTTC,-0.068
9,ATAATGAT,0.12
4,CACCTGGC,-0.212
8,CTTGATGC,-0.0357
2,ATACCACA,0.113
15,AGTTAAAT,-0.069

# Further results:

row,Sequence,PBM E-score
1,TAGCGGGA,-0.143
2,CTACAATA,0.0878
3,TAACTGCA,0.109
4,CGCTCGTA,-0.0113
5,AAGTGAGA,-0.0014
6,ATTCTCTC,-0.0842
7,ATCATCAA,0.129
8,TCGATGAA,-0.0614
9,CCGAGCAG,-0.143
10,AACACCAG,-0.0336
11,ATTAACCA,-0.0314
12,AACGAGGT,-0.019
13,CCTCCGGA,-0.0221
14,GTGTTTTA,-0.0534
15,TCAGCAGA,0.164
16,AGTACACT,-0.148
17,GTTCCGAA,0.21
18,TAGGGGGA,-0.372
19,AACTGGTA,-0.0729
20,TTTCAAAA,0.0245
21,CCCCGATC,-0.341
22,CTAATGGA,-0.0567
23,ACGAGGCT,0.158
24,CTATATTC,-0.00266
25,GGGCATGA,-0.0754

row,Sequence,PBM E-score
1,CGCCGTAC,0.0265
2,GCATCTAC,0.0907
3,CTGCTCTC,-0.122
4,GACGACCC,-0.00081
5,ACTCCGAG,0.0609
6,ACTCAATG,-0.00434
7,ACGATTCT,0.0117
8,GTTTTATA,-0.00371
9,ACCTCGGG,-0.173
10,GAGGGTAA,-0.0711
11,AACTCCCT,-0.132
12,CATTTATC,0.15
13,ACAAAACC,0.106
14,GACAGATC,0.198
15,CGAGCAAG,-0.046
16,ACAGTTCT,-0.0349
17,TCTGCGAA,-0.137
18,GCGGTGAC,-0.0159
19,TAAGGCCA,0.0507
20,GCGATTGA,-0.0173
21,CTACGCGC,0.0221
22,ACGTGTCA,0.0987
23,CCGTGTAA,-0.117
24,CTACTCAA,0.165
25,AAGGCACC,-0.0905

row,Sequence,PBM E-score
1,ACTCAGTA,0.0874
2,GACTCAGC,0.0517
3,CCACAAGC,-0.118
4,CAACGCCG,0.0844
5,AACAGAAG,0.0569
6,GCGGGGCA,0.0386
7,CAGCTTTC,-0.054
8,CCATCACC,0.0432
9,GGTCGCAA,-0.138
10,GCGGGGGA,-0.364
11,ATCACTTG,-0.056
12,ATATAGGA,0.166
13,GCCTATCA,0.169
14,CGTATAAA,0.139
15,ATGTGATC,0.185
16,ATGGGTTC,-0.181
17,AGGGTATA,0.105
18,TCAAATAA,0.0928
19,ATTTCTCA,0.0134
20,CGGGGTAC,-0.132
21,CAGGTCGC,-0.0873
22,ACTGTAGA,-0.0706
23,AAGCTTTA,0.13
24,CAGCGTAC,-0.0907
25,CTCCTTTC,-0.313

row,Sequence,PBM E-score
1,AATGTCGC,0.0509
2,GGGTCGAC,0.0995
3,CTCCGGCA,0.0638
4,GACCCAAC,0.113
5,CCAAGGCA,-0.139
6,ACCGTGTC,-0.0471
7,ACACTTCC,-0.0945
8,ACTATCAA,0.194
9,CCAGCCGA,-0.0214
10,CGGAACTC,0.052
11,AATAGACC,-0.0647
12,ACCGTAAT,0.0187
13,GATGTCAC,0.146
14,ATGAGAAC,0.142
15,ATCATGAC,0.175
16,ACAAGCGG,0.0904
17,CGGCGTCA,-0.0161
18,CTTTTTAA,-0.00761
19,CTCTGCAG,-0.121
20,AAGATCTT,0.136
21,CGTTTCCA,0.0206
22,CTCGTTTA,0.00416
23,CCCTTGAC,-0.197
24,CAACTATG,0.034
25,CAGGACTA,-0.00223

row,Sequence,PBM E-score
1,CGATTTCA,0.102
2,GTAATCGA,0.242
3,AGTGGCTA,-0.0597
4,ACGAACAC,0.198
5,TGGAAACA,0.0315
6,GAGATTCA,0.0766
7,CCTAAAGA,-0.165
8,ATGTAAGC,0.305
9,AGGCCTTA,-0.026
10,TATTATCA,0.138
11,CAATGACG,-0.237
12,GGATTTTA,0.00558
13,CTACGTAG,0.106
14,AAGCGTCT,-0.173
15,CATGCTTA,0.106
16,TCTAATCA,0.181
17,AAATCCTG,0.135
18,CACCGTAC,-0.0219
19,GAGATCGC,0.0727
20,CATCCTGA,0.0565
21,CCATGGTA,0.0858
22,ACGGTGAG,-0.0981
